This note sets out measurements from the supplement of paper PMC10338343.

± gives the standard deviation. The list shows a part of the results. Many of these values have a large error.

The test system of the assay is EfPiwi piRISC loaded with L1MC piRNA (26 nt). Briefly: pre-steady-state target cleavage rate (min^-1); guide: L1MC piRNA 5'p-UAACUAAAUACUAUGCAAGCUGUAGG; MIWI and MILI are mouse PIWI proteins and EfPiwi is from a freshwater sponge; tags in brackets are library labels; higher = faster piRNA-guided slicing of the target. Conditions: auxiliary factor: none (no Gtsf1). An outline of the steps: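 In HEPES–potassium acetate buffer at 33 °C, […] transcribed, DNA-blocked target RNA library was mixed with 1 nM active affinity-purified piRISC carrying one synthetic guide, with or without 500 nM GTSF1 partner protein, for 0–8 or 0–960 min. Uncleaved targets were sequenced and normalised to depth and to weakly complementary targets; three trials were pooled and k3 was capped at 0.0001 min^-1. The pre-steady-state cleavage rate followed from a burst-and-steady-state fit.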
Take UCCUGGAUGUCGAUGGAUAGUAUUUAGUUA: the “pre-steady-state target cleavage rate” value is 0.000593 ± 0.013. As to UCCUGCUACAGCUUGCAUAGUGUUUAGUUA, the “pre-steady-state target cleavage rate” value came out at 0.000362 ± 0.017. In the case of UCCUGCUACAGCUUGCAUAGUCAUUUAGUUA, the “pre-steady-state target cleavage rate” value came to 0.000347 ± 0.016.

Take UCCUGGUACAGCUUGCAUAGUAUUUAGCUUA: the “pre-steady-state target cleavage rate” value was found to be 0.000922 ± 0.011. UCCUGGAUGAGCUUGCAUUCUAUUUAGAAA: the “pre-steady-state target cleavage rate” value turned out to be 0.000711 ± 0.0085.

On to UCCUGGAUGUGCUUGCAUAGUUUUAGUUA, for which the “pre-steady-state target cleavage rate” value was 0.000283 ± 0.032. The same measure for UCCUGGAUGUCGAUGCAUAUGUAUUUAGUUA: 0.000111 ± 0.037. For UCCUGGAUGUCGUUGCAUAGUAUUUAGAUUA, the “pre-steady-state target cleavage rate” value was 0.000417 ± 0.016.

In the case of UCCUGGAUGUGCUUGCAUAGUAUUUAGGUUA, the “pre-steady-state target cleavage rate” value is 0.000483 ± 0.024. Take UCCUGGAUCAGCUUGCAUAUGUAUUUAGUUA: the “pre-steady-state target cleavage rate” value was found to be 0.000201 ± 0.042. In the case of UCCUGGAUCAGCUUGCAUGAGUAUUUAGUUA, the “pre-steady-state target cleavage rate” value came to 0.000281 ± 0.021.

Turning to UCCUGGAUGAGCUUGCAUGGUAUUUAGUUA, the “pre-steady-state target cleavage rate” value came out at 0.000974 ± 0.011. As to UCCUGGAUGUCCUUUCAUAGUAUUUAGUUA, the “pre-steady-state target cleavage rate” value stood at 0.000378 ± 0.016. Regarding UCCUGGAUGUCGAAGCAAAGUAUUUAGUUA, the “pre-steady-state target cleavage rate” value came to 0.000288 ± 0.025. In the case of UCCUGGAUCACGUUGCAUAGUAUUUAGUAA, the “pre-steady-state target cleavage rate” value was 0.000312 ± 0.029.

Regarding UCCUGGAUGUGCUUGCUAGUAUUUAGUUA, the “pre-steady-state target cleavage rate” value turned out to be 0.000513 ± 0.018. Take UCCUGGAUCAGCAUUGCAUAGUAUUUAGUUA: the “pre-steady-state target cleavage rate” value worked out at 0.00139 ± 0.006. Turning to UCCUGGAACAGCUUGCAAUGUAUUUAGUAA, the “pre-steady-state target cleavage rate” value is 0.000494 ± 0.013.

As to UCCUGGAUGUCGAUGCUUAGUAUUUAGUUA, the “pre-steady-state target cleavage rate” value came to 0.000493 ± 0.013. UCCUGGAUGAGCUUGCAUUGUAUUUACAAA: the “pre-steady-state target cleavage rate” value came to 0.000434 ± 0.018. Turning to UCCUGGAUGUCGUUGCAGAGUAUUUAGUUA, the “pre-steady-state target cleavage rate” value worked out at 0.000417 ± 0.024.

For UCCUGGAACAGGUUGCAUAGUUUUUAGUUA, the “pre-steady-state target cleavage rate” value was 0.00148 ± 0.0075. UCCUGGUACAGCUUCGUUAGUAUUUACAAA: the “pre-steady-state target cleavage rate” value was found to be 0.000425 ± 0.016. Regarding UCCUGGAUGUCCUUGCAUAGGUAUUUAGUUA, the “pre-steady-state target cleavage rate” value was determined as 0.000273 ± 0.024. The same measure for UCCUGGAACAGCUUGCUUUGUAUUUAGUUA: 0.00182 ± 0.005. With UCCUGGUAGACCUUGCAUAGUAUUUAGUUA, the “pre-steady-state target cleavage rate” value is 0.000439 ± 0.028.
